PubChem BioAssay AID504793 – Drosophila RNAi Screening Center, 2011

Aim: 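Whole-genome screen for parts of the DNA damage checkpoint at G2/M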 (primary screen)
System: Drosophila S2R+ cells
Knock-down reagent: long dsRNA against Drosophila genes, about 0.25 µg dsRNA per well
Duration: 4 days of dsRNA, then 4 hours of drug before read-out
Challenge: doxorubicin 0.5 µM for 4 hours to cause double-strand breaks, in cells also given a low, harmless dose of dsRNA against nbs to sensitise the assay
Measured: 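Mitotic index as the number of phospho-histone H3-positive cells in each well following doxorubicin, given as raw counts without normalisation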
Reading the numbers: mitotic cells: higher = more cells in mitosis, weaker G2 arrest
Call rule: 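Genes are called active only when high mitotic counts were reproduced with independent dsRNAs and mitosis was checked for delay without damage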
Calls: active = confirmed in follow-up tests; inactive = not confirmed
The deposit covers about 23,000 reagents; this is a random part of those with a known target gene and a result. Of all reagents, 62 (0.27%) were called active. 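Calls come from follow-up tests whose scores are not deposited, so confirmed genes may have low counts here; counts are not normalised per plate.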 Raw values are not corrected between plates. A number with no mark means an inactive call. The numbers tell different reagents against one gene apart. A plus sign joins genes that one reagent is predicted to hit.

| predicted target | dsRNA no. | mitotic cells, replicate 1 |
| --- | --- | --- |
| CG42326 | 1 | 5 |
| CG42326 | 2 | 8 |
| CG42326 | 3 | 5 |
| CG10000 | 1 | 10 |
| CG10000 | 2 | 7 |
| Vlet | 1 | 7 |
| Vlet | 2 | 8 |
| CG42260 | 1 | 3 |
| CG42260 | 2 | 6 |
| CG42260 | 3 | 7 |
| CG42260 | 4 | 3 |
| CG14654 (retired record) | 1 | 10 |
| CG14654 (retired record) | 2 | 7 |
| CtBP | 1 | 7 |
| CtBP | 2 | 7 |
| sotv + CG10731 | 1 | 3 |
| sotv + CG10731 | 2 | 12 |
| Atu | 1 | 2 |
| CG13293 | 1 | 6 |
| LysX | 1 | 9 |
| CG31926 | 1 | 6 |
| CG31926 | 2 | 7 |
| CG9095 | 1 | 19 |
| CG10576 | 1 | 5 |
| CG42633 | 1 | 5 |
| Prosbeta4 | 1 | 32 |
| dysf | 1 | 17 |
| dysf | 2 | 12 |
| dysf | 3 | 12 |
| AP-1sigma | 1 | 4 |
| CG16957 | 1 | 2 |
| CG13151 | 1 | 8 |
| CG2120 | 1 | 8 |
| CG2120 | 2 | 7 |
| CSN7 | 1 | 17 |
| CSN7 | 2 | 7 |
| alpha-Est5 | 1 | 4 |
| CG12419 (retired record) | 1 | 5 |
| CG12419 (retired record) | 2 | 2 |
| CG13373 | 1 | 5 |
| Pkc98E | 1 | 3 |
| Pkc98E | 2 | 6 |
| rhi | 1 | 5 |
| CheB53b | 1 | 8 |
| CheB53b | 2 | 5 |

A few values from above:
CheB53b #2, mitotic cells, replicate 1: 5
Vlet #2, mitotic cells, replicate 1: 8
Under “mitotic cells, replicate 1”, sotv + CG10731 #2 has 12
Under “mitotic cells, replicate 1”, CtBP #1 reads 7
